Data published in PubChem BioAssay AID588629 (Broad Institute, 2011).
Inconclusive results, whose numbers are uncertain, are shown with a selection of clear calls. Active and inactive are the calls of the source.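 How the source made its calls: active means every test run called active, with signal falling and half-effect dose at or below the top valid dose; inconclusive means test runs give conflicting calls; inactive means all test runs inactive.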

Target: cAMP-dependent protein kinase catalytic subunit alpha (Homo sapiens) (UniProt P17612)
Assay: inhibition of human PKA kinase activity – biochemical, Caliper mobility shift, dry powder samples, set 2, dose response (AID 588629)
Conditions: Recombinant PKA, peptide phosphorylation; at 10 µM (top of the series)
How it was run: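 Times: Kinase reaction with compound, 1 h at room temperature | Material: His-tagged PKA catalytic domain | Quantity: 1.5 nM PKA | Read-out basis: % conversion and IC50 | Buffer or medium: MOPS pH 7 with Mg2+ | Signal: Microfluidic electrophoresis, EDTA-stopped endpoint | Reagent: Fluorescent Peptide 21 at 3 µM plus 12 µM ATP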

| SMILES | % substrate conversion (lower = inhibition) |
| --- | --- |
| COc1ccccc1N=C1NC(=O)/C(=C/c2ccc(C)cc2)S1 | inactive: 26.1% |
| COc1cc(/C=C2\SC(=Nc3ccccc3OC)NC2=O)ccc1F | inactive: 25.7% |
| O=C(Nc1ccccc1-c1nc2ccccc2[nH]c1=O)c1cccc(Cl)c1 | inconclusive: 12.4% |
| Cc1cc2nc(-c3ccccc3NC(=O)c3cccs3)c(=O)[nH]c2cc1C | inconclusive: 7.19% |
| COc1ccc(/C=C2\SC(=Nc3ccccc3OC)NC2=O)c(O)c1 | inactive: 18.1% |
| COc1ccc(NC(=O)c2cccs2)c(-c2nc3ccccc3[nH]c2=O)c1 | inconclusive: 4.63% |
| COc1cc(/C=C2\SC(=Nc3cccc(Cl)c3)NC2=O)ccc1O | inconclusive: 9.78% |
| COc1cccc(N=C2NC(=O)/C(=C/c3ccc(O)c(OC)c3)S2)c1 | inconclusive: 10.7% |
| O=C1NC(=NCc2ccccc2)S/C1=C/c1ccc(O)cc1 | inactive: 22.4% |
| COc1cc(/C=C2\S/C(=N/c3ccccn3)NC2=O)ccc1O | inconclusive: 7.71% |
| COc1ccccc1N=C1NC(=O)/C(=C/c2ccc(Cl)cc2)S1 | inactive: 21.9% |

A different layout for two compounds above.
SMILES | % substrate conversion (lower = inhibition)
O=C(Nc1ccccc1-c1nc2ccccc2[nH]c1=O)c1cccc(Cl)c1 | inconclusive: 12.4%
Cc1cc2nc(-c3ccccc3NC(=O)c3cccs3)c(=O)[nH]c2cc1C | inconclusive: 7.19%
